According to publication PMC9293440:
These are yes or no findings as the source states them, for the method shown. In cells and extracts the contact can be indirect. Some results given as binding are weak or reduced against the parent protein; the word gives no strength. Tags and fused reporters may be left off the sequences shown.

T1: LYK2 fused to a half of YFP for BiFC (LYK2-NYFP; LYK2-CYFP) (Arabidopsis thaliana) (UniProt Q9SGI7)
T1 sequence: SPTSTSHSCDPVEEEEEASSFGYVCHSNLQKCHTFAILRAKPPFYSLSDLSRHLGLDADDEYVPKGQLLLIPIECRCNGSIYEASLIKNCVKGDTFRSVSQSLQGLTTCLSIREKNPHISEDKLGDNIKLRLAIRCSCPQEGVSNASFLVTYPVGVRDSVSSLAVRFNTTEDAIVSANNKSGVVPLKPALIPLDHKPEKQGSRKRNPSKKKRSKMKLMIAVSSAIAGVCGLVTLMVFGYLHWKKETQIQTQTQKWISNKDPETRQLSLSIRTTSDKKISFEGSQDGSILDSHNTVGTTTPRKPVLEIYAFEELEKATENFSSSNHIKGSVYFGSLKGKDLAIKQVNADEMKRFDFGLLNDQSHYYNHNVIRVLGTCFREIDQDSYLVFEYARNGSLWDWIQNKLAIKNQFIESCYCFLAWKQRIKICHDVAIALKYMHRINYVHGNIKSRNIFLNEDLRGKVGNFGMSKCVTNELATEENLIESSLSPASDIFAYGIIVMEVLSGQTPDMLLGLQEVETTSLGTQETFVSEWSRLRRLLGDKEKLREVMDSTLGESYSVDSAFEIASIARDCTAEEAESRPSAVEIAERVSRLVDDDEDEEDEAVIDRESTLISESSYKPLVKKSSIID

T2: LYK2-GFP (Arabidopsis thaliana LysM-containing Receptor-Like Kinase 2, GFP-tagged) (Arabidopsis thaliana) (UniProt Q9SGI7)
T2 sequence: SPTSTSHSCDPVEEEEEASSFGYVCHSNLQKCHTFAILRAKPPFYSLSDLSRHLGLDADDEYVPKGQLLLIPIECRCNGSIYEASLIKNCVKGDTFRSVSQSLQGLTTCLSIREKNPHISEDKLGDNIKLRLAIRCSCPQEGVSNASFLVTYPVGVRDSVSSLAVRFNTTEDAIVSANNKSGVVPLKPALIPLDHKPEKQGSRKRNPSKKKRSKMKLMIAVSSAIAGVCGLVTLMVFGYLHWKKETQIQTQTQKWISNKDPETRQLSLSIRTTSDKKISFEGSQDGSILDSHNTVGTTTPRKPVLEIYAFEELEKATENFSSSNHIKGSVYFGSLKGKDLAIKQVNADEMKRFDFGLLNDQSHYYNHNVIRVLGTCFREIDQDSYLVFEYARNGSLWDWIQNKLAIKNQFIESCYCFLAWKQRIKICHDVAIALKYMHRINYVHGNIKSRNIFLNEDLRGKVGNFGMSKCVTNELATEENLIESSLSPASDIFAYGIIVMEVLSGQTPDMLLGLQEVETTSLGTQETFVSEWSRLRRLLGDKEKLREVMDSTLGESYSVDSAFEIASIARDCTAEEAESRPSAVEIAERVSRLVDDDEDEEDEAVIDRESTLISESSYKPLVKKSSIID


Columns and labels:
[1] = target: T1, LYK2 fused to a half of YFP for BiFC (LYK2-NYFP; LYK2-CYFP) (Arabidopsis thaliana); assay: split reporter; BiFC with N- and C-terminal halves of YFP; fusions transiently co-expressed in N. tabacum leaves by Agrobacterium infiltration; confocal imaging 48 hr after infiltration
[2] = target: T2, LYK2-GFP (Arabidopsis thaliana LysM-containing Receptor-Like Kinase 2, GFP-tagged) (Arabidopsis thaliana); assay: co-IP; LYK2-GFP and LYK5-myc transiently co-expressed in N. benthamiana leaves; lysis in 50 mM Tris pH 7.6, 150 mM NaCl, 0.5% Triton X-100, protease inhibitors; LYK2-GFP immunoprecipitated with anti-GFP beads (Chromotek); immunoblot with anti-GFP and anti-myc; no elicitor treatment
[3] = target: LYK5 fused to a half of YFP for BiFC (LYK5-NYFP; LYK5-CYFP) (Arabidopsis thaliana) (UniProt O22808); assay: split reporter; BiFC with N- and C-terminal halves of YFP; fusions transiently co-expressed in N. tabacum leaves by Agrobacterium infiltration; confocal imaging 48 hr after infiltration

| binding [1] | binding [2] | binding [3] | Binder |
| --- | --- | --- | --- |
| no binding | – | – | LYK2 fused to a half of YFP for BiFC (LYK2-NYFP; LYK2-CYFP) (receptor, UniProt Q9SGI7 26-654) SPTSTSHSCDPVEEEEEASSFGYVCHSNLQKCHTFAILRAKPPFYSLSDLSRHLGLDADDEYVPKGQLLLIPIECRCNGSIYEASLIKNCVKGDTFRSVSQSLQGLTTCLSIREKNPHISEDKLGDNIKLRLAIRCSCPQEGVSNASFLVTYPVGVRDSVSSLAVRFNTTEDAIVSANNKSGVVPLKPALIPLDHKPEKQGSRKRNPSKKKRSKMKLMIAVSSAIAGVCGLVTLMVFGYLHWKKETQIQTQTQKWISNKDPETRQLSLSIRTTSDKKISFEGSQDGSILDSHNTVGTTTPRKPVLEIYAFEELEKATENFSSSNHIKGSVYFGSLKGKDLAIKQVNADEMKRFDFGLLNDQSHYYNHNVIRVLGTCFREIDQDSYLVFEYARNGSLWDWIQNKLAIKNQFIESCYCFLAWKQRIKICHDVAIALKYMHRINYVHGNIKSRNIFLNEDLRGKVGNFGMSKCVTNELATEENLIESSLSPASDIFAYGIIVMEVLSGQTPDMLLGLQEVETTSLGTQETFVSEWSRLRRLLGDKEKLREVMDSTLGESYSVDSAFEIASIARDCTAEEAESRPSAVEIAERVSRLVDDDEDEEDEAVIDRESTLISESSYKPLVKKSSIID |
| – | binds | – | LYK5-myc (Arabidopsis thaliana LYK5, myc-tagged) (receptor, UniProt O22808 27-664) QQPYVNNHQLACEVRVYDNITNGFTCNGPPSCRSYLTFWSQPPYNTADSIAKLLNVSAAEIQSINNLPTATTRIPTRELVVIPANCSCSSSSGGFYQHNATYNLSGNRGDETYFSVANDTYQALSTCQAMMSQNRYGERQLTPGLNLLVPLRCACPTAKQTTAGFKYLLTYLVAMGDSISGIAEMFNSTSAAITEGNELTSDNIFFFTPVLVPLTTEPTKIVISPSPPPPPVVATPPQTPVDPPGSSSSHKWIYIGIGIGAGLLLLLSILALCFYKRRSKKKSLPSSLPEENKLFDSSTKQSIPTTTTTQWSIDLSNSSEAFGLKSAIESLTLYRFNDLQSATSNFSDENRIKGSVYRATINGDDAAVKVIKGDVSSSEINLLKKLNHSNIIRLSGFCIREGTSYLVFEYSENGSISDWLHSSGKKSLTWKQRVEIARDVAEALDYLHNYITPPHIHKNLESTNILLDSNFRAKIANFGVARILDEGDLDLQLTRHVEGTQGYLAPEYVENGVITSKLDVFAFGVAVLELLSGREAVTIHKKKEGEEEVEMLCKVINSVLGGENVREKLKEFMDPSLGNEYPLELAYTMAQLAKSCVATDLNSRPSVTQVLTTLSMIVSSSIDWEPSDDLLRSGSLGN |
| binds | – | binds | LYK5 fused to a half of YFP for BiFC (LYK5-NYFP; LYK5-CYFP) (receptor, UniProt O22808 27-664) QQPYVNNHQLACEVRVYDNITNGFTCNGPPSCRSYLTFWSQPPYNTADSIAKLLNVSAAEIQSINNLPTATTRIPTRELVVIPANCSCSSSSGGFYQHNATYNLSGNRGDETYFSVANDTYQALSTCQAMMSQNRYGERQLTPGLNLLVPLRCACPTAKQTTAGFKYLLTYLVAMGDSISGIAEMFNSTSAAITEGNELTSDNIFFFTPVLVPLTTEPTKIVISPSPPPPPVVATPPQTPVDPPGSSSSHKWIYIGIGIGAGLLLLLSILALCFYKRRSKKKSLPSSLPEENKLFDSSTKQSIPTTTTTQWSIDLSNSSEAFGLKSAIESLTLYRFNDLQSATSNFSDENRIKGSVYRATINGDDAAVKVIKGDVSSSEINLLKKLNHSNIIRLSGFCIREGTSYLVFEYSENGSISDWLHSSGKKSLTWKQRVEIARDVAEALDYLHNYITPPHIHKNLESTNILLDSNFRAKIANFGVARILDEGDLDLQLTRHVEGTQGYLAPEYVENGVITSKLDVFAFGVAVLELLSGREAVTIHKKKEGEEEVEMLCKVINSVLGGENVREKLKEFMDPSLGNEYPLELAYTMAQLAKSCVATDLNSRPSVTQVLTTLSMIVSSSIDWEPSDDLLRSGSLGN |
